Values from PubChem BioAssay AID504764 (Drosophila RNAi Screening Center, 2011)
In all, the deposit lists about 22,000 reagents; below is a random part of those that have a named target and a result. In the full data, 403 (1.9%) got an active call. 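Unnormalised raw counts per well; ratio z-scores behind the hit calls and whether each hit raises or lowers signal are not deposited.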 Entries without a mark were called inactive. Names joined by + are all predicted targets of the reagent. The record does not give: the amount of reagent.

Screen: 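Genes whose knock-down alters Notch-dependent transcription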 (primary screen)
System: Drosophila Kc167 cells
Reagents: long dsRNA against Drosophila genes
Time to read-out: about 5 days (4 days dsRNA, then 24 h after transfection)
Treatment: transfection of constitutively active membrane-tethered Notch lacking the extracellular domain, read 24 h later
Measurement: 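Firefly luciferase from an E(spl)m3 reporter with active Notch, plus control-promoter and uninduced reporter wells for normalisation; unnormalised counts, duplicate wells a and b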
Direction: induced reporter light, run 1, well a and induced reporter light, run 1, well b: higher = more light from the Notch target reporter with active Notch; control promoter light, run 1, well a and control promoter light, run 1, well b: higher = more light from the viral control promoter (cell number, transfection, viability); uninduced reporter light, run 1, well a: higher = more light from the Notch target reporter without active Notch
Rule for the call: 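Wells with low control signal or poorly matching duplicates excluded; duplicates averaged; per source plate, z beyond ±2 for induced/control log2 ratio or beyond ±1.8 for induced/uninduced marks a hit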
Meaning of the calls: active = modifier hit (raised or lowered Notch signal); inactive = not a hit

gene | dsRNA | induced reporter light, run 1, well a | induced reporter light, run 1, well b | control promoter light, run 1, well a | control promoter light, run 1, well b | uninduced reporter light, run 1, well a
Rpi (Ribose-5-phosphate isomerase) | DRSC04583 | 1.83e5 | 1.81e5 | 1.53e5 | 1.54e5 | 13190
CG11755 | DRSC14374 | 96700 | 1.13e5 | 1.04e5 | 92070 | 6955
CG3999 | DRSC15534 | 69050 | 86325 | 91355 | 62380 | 5080
Fife | DRSC08262 | 58735 | 52125 | 91480 | 74685 | 8050
CG32813 | DRSC17948 | 1.25e5 | 1.21e5 | 2.28e5 | 2.06e5 | 9610
CG33722 + CG18749 | DRSC12674 | 1.76e5 | 1.32e5 | 1.81e5 | 1.88e5 | 12695
CG33722 + CG18749 | DRSC15386 | 95695 | 95075 | 82460 | 47745 | 5260
ND-B14 (NADH dehydrogenase (ubiquinone) B14 subunit) | DRSC07029 | 1.41e5 | 1.53e5 | 2.18e5 | 2.42e5 | 15265
CG8945 | DRSC20129 | 91935 | 74270 | 98755 | 81065 | 11970
CG8945 | DRSC20130 | 72040 | 55480 | 66845 | 81145 | 9370
Cht5 (Chitinase 5) | DRSC16470 | 1.54e5 | 1.26e5 | 89995 | 85300 | 10505
CG16779 | DRSC15153 | 95770 | 79740 | 1.06e5 | 69405 | 4545
CG15919 | DRSC06594 | 1.74e5 | 1.70e5 | 2.28e5 | 2.06e5 | 13480
CG6788 | DRSC20007 | 89880 | 77960 | 95685 | 85840 | 10950
CG4332 | DRSC19890 | 1.20e5 | 1.32e5 | 1.01e5 | 1.14e5 | 6370
CG10911 | DRSC06008 | 1.17e5 | 92755 | 1.07e5 | 94550 | 5820
CG4382 | DRSC02743 | 1.36e5 | 1.75e5 | 71260 | 93710 | 19175
bcd (bicoid) | DRSC12624 | 1.79e5 | 1.62e5 | 96840 | 82350 | 12195
CG13557 | DRSC04195 | 1.78e5 | 1.35e5 | 1.70e5 | 1.49e5 | 9345
CG12589 | DRSC12215 | 1.52e5 | 1.26e5 | 1.32e5 | 1.30e5 | 8265
CG15734 | DRSC19701 | 1.15e5 | 1.13e5 | 2.35e5 | 1.87e5 | 8565
CG12836 | DRSC06182 | 2.24e5 | 1.84e5 | 2.53e5 | 2.44e5 | 18910
CG32982 | DRSC01059 | 63365 | 64125 | 38660 | 43965 | 5728
CG32982 | DRSC02677 | 1.25e5 | 1.51e5 | 90650 | 1.44e5 | 21900
CG32982 | DRSC03268 | 1.79e5 | 1.86e5 | 98085 | 1.14e5 | 21425
CG32982 | DRSC03269 | 1.05e5 | 1.49e5 | 62050 | 1.06e5 | 15635
CG18449 | DRSC06754 | 1.75e5 | 1.64e5 | 2.57e5 | 2.19e5 | 17840
Cds (CDP-diacylglycerol synthase) | DRSC10938 | 98680 | 85885 | 56415 | 33935 | 8530
CG2901 | DRSC18239 | 2.23e5 | 1.68e5 | 3.84e5 | 3.30e5 | 15060
CG15126 | DRSC06548 | 38370 | 35250 | 35020 | 37605 | 4080
CG31730 | DRSC01308 | 97875 | 1.20e5 | 1.71e5 | 1.37e5 | 6820
CG13068 | DRSC09951 | 2.03e5 | 1.71e5 | 2.38e5 | 2.35e5 | 6850
GAA1 (Glycosylphosphatidylinositol anchor attachment 1) | DRSC18267 | 1.71e5 | 1.77e5 | 1.94e5 | 1.67e5 | 11470
CG4324 | DRSC04462 | 1.44e5 | 1.50e5 | 1.56e5 | 1.33e5 | 10000
CG8907 | DRSC16453 | 1.70e5 | 1.89e5 | 2.08e5 | 2.48e5 | 16445
Rh2 (Rhodopsin 2) | DRSC16821 | 2.00e5 | 1.80e5 | 2.17e5 | 2.02e5 | 11342
miple2 (midkine and pleiotrophin 2) | DRSC08723 | 1.92e5 | 1.25e5 | 1.62e5 | 1.59e5 | 9390
gdrd (goddard) | DRSC10020 | 1.80e5 | 2.12e5 | 2.69e5 | 2.64e5 | 8530
rost (rolling stone) | DRSC03603 | 2.06e5 | 2.02e5 | 1.77e5 | 1.83e5 | 17240
CG11808 | DRSC06088 | 1.02e5 | 1.03e5 | 1.96e5 | 2.18e5 | 10650
CG14744 | DRSC06480 | 1.81e5 | 1.52e5 | 2.06e5 | 2.03e5 | 14935
Uba4 (Ubiquitin-like activating enzyme 4) | DRSC02194 | 1.58e5 | 1.77e5 | 94040 | 1.25e5 | 18375
Spn43Aa (Serpin 43Aa) | DRSC06117 | 1.11e5 | 1.51e5 | 1.25e5 | 1.28e5 | 10400
COX6B (Cytochrome c oxidase subunit 6B) | DRSC19590 | 99570 | 1.18e5 | 90090 | 71900 | 8205
CG1105 | DRSC12528 | 1.22e5 | 1.35e5 | 81600 | 71020 | 10570
CG7745 | DRSC07037 | 52360 | 36570 | 23855 | 20745 | 10040
CG13407 | DRSC14583 | 1.78e5 | 1.55e5 | 1.67e5 | 1.71e5 | 12735
TTLL1A (Tubulin tyrosine ligase-like 1A) | DRSC20121 | 1.20e5 | 1.22e5 | 91650 | 47070 | 8685
Atpalpha (Na pump alpha subunit) | DRSC14119 | 1.48e5 | 1.60e5 | 2.21e5 | 2.22e5 | 14500
CG1299 | DRSC08300 | 1.10e5 | 1.05e5 | 1.43e5 | 1.63e5 | 8032

Looked up above.
Entry of CG12589 [DRSC12215] in “induced reporter light, run 1, well b”: 1.26e5
Under “induced reporter light, run 1, well b”, CG15919 [DRSC06594] shows 1.70e5
Value of GAA1 (Glycosylphosphatidylinositol anchor attachment 1) [DRSC18267] in “uninduced reporter light, run 1, well a”: 11470
Value for CG2901 [DRSC18239] under “induced reporter light, run 1, well b”: 1.68e5
